In article doi:10.1101/2024.06.23.600248:
Results are given in words; binding and its absence hold for the method and conditions named. Binding seen in cells or lysates may run through a third protein. Some results given as binding are weak or reduced against the parent protein; the word gives no strength.

Amino acid sequences for entries named in this document (tags omitted).
UniProt Q9BQQ3: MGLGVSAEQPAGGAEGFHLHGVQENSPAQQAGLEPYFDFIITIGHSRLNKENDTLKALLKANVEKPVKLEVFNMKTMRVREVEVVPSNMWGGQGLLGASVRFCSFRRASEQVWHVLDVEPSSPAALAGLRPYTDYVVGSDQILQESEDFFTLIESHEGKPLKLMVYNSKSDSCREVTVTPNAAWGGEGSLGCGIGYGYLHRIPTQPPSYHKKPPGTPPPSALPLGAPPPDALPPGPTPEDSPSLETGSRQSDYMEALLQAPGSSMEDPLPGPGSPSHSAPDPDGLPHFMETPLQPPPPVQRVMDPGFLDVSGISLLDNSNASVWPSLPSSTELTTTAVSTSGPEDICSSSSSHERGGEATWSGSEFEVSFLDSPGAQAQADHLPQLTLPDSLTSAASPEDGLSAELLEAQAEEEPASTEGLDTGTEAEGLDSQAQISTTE
UniProt Q9H0U4: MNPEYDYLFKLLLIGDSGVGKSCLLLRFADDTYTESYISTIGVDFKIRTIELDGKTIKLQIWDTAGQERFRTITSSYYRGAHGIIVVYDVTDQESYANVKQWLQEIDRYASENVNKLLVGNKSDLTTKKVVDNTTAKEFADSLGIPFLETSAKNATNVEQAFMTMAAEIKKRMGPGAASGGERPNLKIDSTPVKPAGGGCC

Assays:
GRASP65-diHcRED = GRASP65-diHcRED (UniProt Q9BQQ3); test: FRET or BRET
plasmolipin = target: T1, plasmolipin (UniProt Q9Y342); test: FRET or BRET
T1 sequence: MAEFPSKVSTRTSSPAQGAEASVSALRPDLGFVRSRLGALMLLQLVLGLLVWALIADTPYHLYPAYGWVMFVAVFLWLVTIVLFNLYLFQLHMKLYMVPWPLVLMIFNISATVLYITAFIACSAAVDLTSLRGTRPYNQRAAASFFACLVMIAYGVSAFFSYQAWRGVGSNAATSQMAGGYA

Substance | binding (GRASP65-diHcRED) | binding (plasmolipin)
Human Rab1b-Dronpa (from UniProt Q9H0U4 1-201) | binds | –
Rab1b (construct of Supplementary Fig S4) (from UniProt Q9H0U4 1-201) | – | binds
